# Reference: PubChem BioAssay AID540276 (National Center for Advancing Translational Sciences (NCATS), 2011)
# Values joined by “and” are separate entries in the source; they are usually repeats but may differ in a detail not shown here. Identical values can stand only once. About 5,400 (1.8%) of roughly 300,000 compounds were called active. The shares of active, inactive and inconclusive entries below differ from those in the screen. The call rests on the fitted dose curve; tested in HEK293 cells. A potency beside an inconclusive call is a rough fit, not a confirmed value.
# Assay: qHTS for inhibitors of binding or entry into cells for Marburg Virus
# Conditions: Marburg virus pseudotyped entry inhibition, cell reporter; activity change, negative = inhibition: at 37.8 µM (top of the series) unless noted
# On the % scale 0 is the no-effect control and ±100 the full control effect; potency means the concentration at half of the fitted maximal effect.
SMILES,"activity change, negative = inhibition",Potency
COc1cccc(NC(=O)N2CCN(c3cccc(C)c3C)CC2)c1,inactive: -15.9%,
O=C(/C=C/Nc1ccccc1)c1ccccc1,,"inconclusive: 35.5 µM [inhibitor, single point]"
CCOC(=O)c1c(CSc2ccccc2)n(C)c2cc(Br)c(O)c(CN(C)C)c12,,"inconclusive: 35.5 µM [inhibitor, single point]"
O=C(C1C=CC(C(=O)N2CCOCC2)S1)N1CCOCC1 (centres undefined),inactive: 19.3% [at 46.1 µM],
C=CCN(C(=O)CCc1ccccc1OC)c1nc(-c2ccc(S(C)(=O)=O)cc2)cs1,,"inconclusive: 35.5 µM [inhibitor, single point]"
Cc1cc(C)c2oc(-c3ccc(C)c(NC(=S)NC(=O)/C=C/c4ccco4)c3)nc2c1,inactive: 3.45% [at 46.1 µM],
COc1ccc(C(=O)NC(=O)CSc2nnc(-c3ccco3)n2-c2ccccc2)cc1,,"inconclusive: 1.78 µM [inhibitor, single point]"
O=C(CCSc1ccccc1)N1CCN(c2ccccc2F)CC1,,"inconclusive: 10 µM [inhibitor, single point]"
Cc1ccc2[nH]cc(C(c3ccccc3)c3ccc(Cl)s3)c2c1 (centres undefined),,"inconclusive: 35.5 µM [inhibitor, single point]"
Cc1ccc(C(=O)N2CCN(CCc3ccncc3)CC2)cc1,,"inconclusive: 0.316 µM [inhibitor, partial curve, poor fit]"
CCCCN(C)C(=O)CSc1nc(NCc2ccc(OC)cc2)c2ccccc2n1,,"inconclusive: 29.1 µM [inhibitor, single point]"
O=C(NNC(=S)Nc1cccc(Cl)c1)c1ccccc1OC(F)F,,"inconclusive: 35.5 µM [inhibitor, partial curve, poor fit]"
CCOc1ccccc1NC(=O)Cn1c(=O)n(CCCC(=O)NCc2ccc(C)cc2)c(=O)c2ccccc21,inactive: 10.1% [at 46.1 µM],
O=C(C1=NNCC1c1ccccc1)C1OC1c1ccccc1 (centres undefined),,"inconclusive: 7.08 µM [inhibitor, partial curve, poor fit]"
O=C(NCc1ccco1)C(c1ccccc1)N(C(=O)Cc1cccs1)c1ccccc1 (centres undefined),,"inconclusive: 7.08 µM [inhibitor, full curve]"
CCOC(=O)NC(=O)C(/C=N/c1sccc1C(=O)OC)=C(\C)O,,"inconclusive: 2.82 µM [inhibitor, partial curve, poor fit]"
Cc1ccc(NC(=O)N2CCCC2)cc1Cl,,"inconclusive: 6.51 µM [activator, full curve, poor fit]"
Cc1cccc(C)c1NC(=O)CCCSc1nnc(-c2ccc(Cl)cc2)n1-c1ccccc1,,"inconclusive: 10 µM [inhibitor, partial curve, poor fit]"
CCN(CC)CCNC(=O)c1cc2c(-c3cccc(OC)c3)nn(C)c2s1,,"inconclusive: 15.8 µM [inhibitor, single point] and inconclusive: 10 µM [inhibitor, partial curve, poor fit]"
O=S(=O)(c1cccc(-c2nn3c(-c4ccncc4)nnc3s2)c1)N1CCOCC1,inactive: -5.6%,
CCOc1ccc(-c2cc(C(=O)N3CCN(c4ccccn4)CC3)c3ccccc3n2)cc1,,"inconclusive: 6.51 µM [inhibitor, full curve]"
COc1ccccc1CC(=O)Nc1ccc2c(c1)OC1(CCCC1)O2,,"inconclusive: 5.01 µM [activator, full curve, poor fit]"

SMILES,"activity change, negative = inhibition",Potency
COc1ccc(NC(=O)c2ccc(Cc3ccc(C)cc3)o2)cc1,,"inconclusive: 5.62 µM [activator, single point]"
COc1c2c(cc3c1C(CC(O)Cc1ccccc1)N(C)CC3)OCO2 (centres undefined),,"inconclusive: 0.891 µM [activator, single point]"
COc1ccc(C2Nc3ccccc3C(=O)N2Cc2ccco2)cc1COc1ccc(NC(C)=O)cc1 (centres undefined),,"inconclusive: 35.5 µM [inhibitor, single point]"
Cc1ccc2nc(-c3ccc(C)s3)c(Nc3ccc4c(c3)OCCO4)n2c1,,"inconclusive: 2.82 µM [activator, full curve]"
Cn1cccc1/C=N/N1CCN(c2ccccn2)CC1,,"inconclusive: 0.398 µM [activator, full curve, poor fit]"
COc1ccccc1-c1nn(CCC(=O)Nc2ccccc2)c2nc(C)cc(C)c12,inactive: -0.507% [at 46.1 µM],
COc1ccc(CCNC(=O)CN(c2ccccc2)S(=O)(=O)N(C)C)cc1,,"inconclusive: 1.12 µM [inhibitor, partial curve, poor fit]"
Cc1noc(C)c1COc1ncnc2ccccc12,,"inconclusive: 35.5 µM [activator, single point]"
COc1ccccc1C(=O)Nc1ccc(-c2cc(C(F)(F)F)nn2-c2ccccc2)cc1,,"inconclusive: 35.5 µM [inhibitor, single point]"
CCN1CCc2c(OCC(=O)N3N=C(c4cccs4)CC3c3ccc(F)cc3)cccc2C1=O (centres undefined),,"inconclusive: 35.5 µM [inhibitor, single point]"
O=c1cc(CN2CCN(C/C=C/c3ccccc3)CC2)c2cc(O)c(-c3ccccc3)cc2o1,inactive: -2.01%,
COc1ccc(-c2cc(C3CCN(c4cc(Cl)nc(N)n4)CC3)[nH]n2)cc1,,active: 9.2 µM
CCCCN(C(=O)Cc1cccs1)c1nnc(-c2cccnc2)s1,,"inconclusive: 35.5 µM [inhibitor, single point]"
Cc1cc([N+](=O)[O-])ccc1NC(=O)CSc1nncn1-c1cccnc1,,"inconclusive: 11.2 µM [activator, single point]"
Cn1c(O)c(/C=N/NC(=O)c2cc3ccccc3cc2O)c2ccccc21,,"inconclusive: 35.5 µM [inhibitor, single point]"
CNC(=S)N/N=C/c1ccc2c(c1)OCCO2,inactive: 1.39%,
O=C1C2C3C=CC(C4CC34)C2C(=O)N1/N=C/c1ccc(-c2ccc(Cl)cc2[N+](=O)[O-])o1 (centres undefined),inactive: -5.87%,
CCCCc1nc(SCC(=O)N2CCCCC2)c2c(=O)n(C)c(=O)n(C)c2n1,,"inconclusive: 12.6 µM [inhibitor, partial curve, poor fit]"
NS(=O)(=O)c1ccc(CCNC(=O)Nc2ccc(Cl)c(Cl)c2)cc1,,"inconclusive: 25.9 µM [inhibitor, single point]"
CC1CCN(CCOc2cccc(Br)c2)CC1,,"inconclusive: 10 µM [inhibitor, partial curve, poor fit]"
COc1ccc(CCNC(=O)c2cc(COc3c(F)cccc3F)on2)c(OC)c1,inactive: 14.4%,
Cc1nnc(NC(=O)CSc2ccc(-c3ccc(Cl)cc3)nn2)s1,inactive: -0.0742%,

SMILES,"activity change, negative = inhibition",Potency
Cc1ccc2c(c1)c1nnc(SCC(=O)N3CCCc4ccccc43)nc1n2CC(=O)O,inactive: -11.1% [at 46.1 µM],
COc1cccc(NC(=O)CN2C(=O)CC(c3ccco3)Sc3ccccc32)c1 (centres undefined),inactive: 1.05% [at 46.1 µM],
O=C(COc1ccc(Br)cc1Br)NN1C(=O)c2ccccc2C1=O,,"inconclusive: 10 µM [inhibitor, partial curve, poor fit]"
Cc1cccc(NC(=O)CCNC(=O)c2ccccc2)c1,,"inconclusive: 31.6 µM [activator, single point]"
Cc1ccc(C(=O)Nc2cccc(-c3cn4ccccc4n3)c2)cc1,,"inconclusive: 35.5 µM [inhibitor, single point]"
O=C(COC(=O)COc1ccccc1[N+](=O)[O-])NC1CCCC1,inactive: 24.2%,
Cc1ccc(OCCSCc2nnc(NC(=O)Nc3cccc(Cl)c3)s2)cc1,,"inconclusive: 35.5 µM [inhibitor, single point]"
CCOc1ccc2nc(SCc3ccc(CC(=O)O)cc3)c(C#N)cc2c1,,"inconclusive: 11.2 µM [inhibitor, partial curve, poor fit]"
Cc1ccc(N(C)S(=O)(=O)c2cccc(C(=O)N(C)Cc3cnn(-c4ccccc4)c3)c2)cc1,,"inconclusive: 15.8 µM [inhibitor, single point]"
CCCC(=O)Nc1ccc2c(c1)nc1n2CCN(CCOC)C1,,"inconclusive: 31.6 µM [activator, single point]"
COc1ccc(-c2csc(NC(=S)NC(=O)/C=C/c3ccco3)n2)cc1OC,,"inconclusive: 1.84 µM [inhibitor, partial curve, poor fit]"
COc1ccc(-c2n(CC(=O)OC3CC(C)CCC3C(C)C)c3ccccc3[n+]2C)cc1 (centres undefined),,"inconclusive: 1.12 µM [inhibitor, full curve, poor fit]"
Cc1ccc(S(=O)(=O)N2CCC(C(=O)N[C@@H](Cc3ccccc3)C(=O)O)CC2)cc1,,"inconclusive: 8.2 µM [activator, partial curve, poor fit]"
COc1ccccc1NC(C)C(=O)N/N=C/c1ccccc1OCc1cccc(Br)c1 (centres undefined),,"inconclusive: 0.891 µM [inhibitor, full curve, poor fit]"
O=S(=O)(Nc1ccc(Cl)cc1)c1ccc(N2CCOCC2)c(NC(=S)NCCN2CCOCC2)c1,inactive: 7.27% [at 46.1 µM],
O=C(NCc1ccco1)c1ccc(S(=O)(=O)N2CCCc3ccccc32)cc1,,"inconclusive: 16.4 µM [inhibitor, partial curve, poor fit]"
CCOc1cc(C(Nc2cc(C)ccn2)c2ccc3cccnc3c2O)ccc1OC (centres undefined),,"inconclusive: 22.4 µM [inhibitor, single point]"
CCCn1c(SCC(=O)Nc2nnc(C)s2)nnc1-c1ccoc1C,,"inconclusive: 0.562 µM [inhibitor, full curve, poor fit]"
c1ccc(CCSc2nccn2-c2ccccc2)cc1,,"inconclusive: 35.5 µM [inhibitor, single point]"
CCOC(=O)c1ccc(NC2Nc3cc(C)nn3S2)cc1 (centres undefined),,"inconclusive: 5.62 µM [activator, full curve]"
